Here are results for one molecule from article PMC11574253.

These are yes or no findings as the source states them, for the method shown. In cells and extracts the contact can be indirect. Some results given as binding are weak or reduced against the parent protein; the word gives no strength. Where a sequence is shown, tags or fusion partners need not be part of it.

Experiment [1] deals with T1, Flag-tagged human DVL3 (Dishevelled 3), wild type (human) (UniProt Q92997).
T1 sequence: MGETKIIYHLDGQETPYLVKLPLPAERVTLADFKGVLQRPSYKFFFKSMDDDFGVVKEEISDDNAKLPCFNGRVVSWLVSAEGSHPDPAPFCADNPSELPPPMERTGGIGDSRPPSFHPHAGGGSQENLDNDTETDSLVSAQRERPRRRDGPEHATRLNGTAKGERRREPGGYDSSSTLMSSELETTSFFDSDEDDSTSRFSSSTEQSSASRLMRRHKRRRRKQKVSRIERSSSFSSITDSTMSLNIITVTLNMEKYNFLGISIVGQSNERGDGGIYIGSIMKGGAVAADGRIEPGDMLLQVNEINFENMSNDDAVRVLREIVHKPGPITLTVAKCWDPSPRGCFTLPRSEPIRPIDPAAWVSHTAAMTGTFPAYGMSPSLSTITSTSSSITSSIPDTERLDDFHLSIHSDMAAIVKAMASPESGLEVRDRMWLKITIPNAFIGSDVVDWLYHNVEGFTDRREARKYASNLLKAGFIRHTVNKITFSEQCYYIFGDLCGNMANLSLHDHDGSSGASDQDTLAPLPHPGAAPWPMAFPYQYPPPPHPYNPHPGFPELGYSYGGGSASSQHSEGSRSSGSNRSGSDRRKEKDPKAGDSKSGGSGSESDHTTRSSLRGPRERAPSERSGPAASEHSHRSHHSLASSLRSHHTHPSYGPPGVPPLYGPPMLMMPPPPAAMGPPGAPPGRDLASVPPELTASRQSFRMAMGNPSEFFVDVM
The experiment is described as follows: co-IP; Flag-DVL (DVL1, DVL2, DVL3 or DVL3 truncation mutants) and TTLL11 overexpressed in HEK293T; IP anti-Flag, TTLL11 detected with anti-GFP; lysis buffer 50 mM Tris pH 7.4, 150 mM NaCl, 1 mM EDTA, 0.5% NP40, 4 °C; also after 3 h of 100 ng/ml Wnt3a or Wnt5a (interaction not modified).

The target in experiment [2] is T2, Flag-DVL1 (human) (UniProt O14640).
T2 sequence: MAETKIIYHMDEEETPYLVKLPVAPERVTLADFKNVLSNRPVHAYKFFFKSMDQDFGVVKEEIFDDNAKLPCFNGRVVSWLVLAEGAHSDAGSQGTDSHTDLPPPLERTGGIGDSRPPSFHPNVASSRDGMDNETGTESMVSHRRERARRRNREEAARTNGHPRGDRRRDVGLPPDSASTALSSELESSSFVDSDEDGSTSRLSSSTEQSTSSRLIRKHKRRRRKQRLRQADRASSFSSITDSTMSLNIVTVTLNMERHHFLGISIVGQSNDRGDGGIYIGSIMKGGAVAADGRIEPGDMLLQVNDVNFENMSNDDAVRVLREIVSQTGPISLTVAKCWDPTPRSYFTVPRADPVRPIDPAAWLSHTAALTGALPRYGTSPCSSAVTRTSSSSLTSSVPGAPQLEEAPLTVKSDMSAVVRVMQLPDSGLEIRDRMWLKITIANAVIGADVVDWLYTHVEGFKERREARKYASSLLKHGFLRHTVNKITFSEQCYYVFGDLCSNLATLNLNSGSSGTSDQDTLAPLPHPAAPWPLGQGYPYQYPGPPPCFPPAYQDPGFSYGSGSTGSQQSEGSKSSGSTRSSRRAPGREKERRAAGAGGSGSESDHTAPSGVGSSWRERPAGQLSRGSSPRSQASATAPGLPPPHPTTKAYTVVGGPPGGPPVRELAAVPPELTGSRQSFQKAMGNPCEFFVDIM
The experiment is described as above.

B1: human TTLL11 (hTTLL11), EYFP-tagged (enzyme, UniProt Q8NHH1 1-710)
chain: MRRGSSESELAARWEAEAVAAAKAAAKAEAEATAETVAEQVRVDAGAAGEPECKAGEEQPKVLAPAPAQPSAAEEGNTQVLQRPPPTLPPSKPKPVQGLCPHGKPRDKGRSCKRSSGHGSGENGSQRPVTVDSSKARTSLDALKISIRQLKWKEFPFGRRLPCDIYWHGVSFHDNDIFSGQVNKFPGMTEMVRKITLSRAVRTMQNLFPEEYNFYPRSWILPDEFQLFVAQVQMVKDDDPSWKPTFIVKPDGGCQGDGIYLIKDPSDIRLAGTLQSRPAVVQEYICKPLLIDKLKFDIRLYVLLKSLDPLEIYIAKDGLSRFCTEPYQEPTPKNLHRIFMHLTNYSLNIHSGNFIHSDSASTGSKRTFSSILCRLSSKGVDIKKVWSDIISVVIKTVIALTPELKVFYQSDIPTGRPGPTCFQILGFDILLMKNLKPILLEVNANPSMRIEHEHELSPGVFENVPSLVDEEVKVAVIRDTLRLMDPLKKKRENQSQQLEKPFAGKEDALDGELTSAPDCNANPEAHLPSICLKQVFPKYAKQFNYLRLVDRMANLFIRFLGIKGTMKLGPTGFRTFIRSCKLSSSSLSMAAVDILYIDITRRWNSMTLDQRDSGMCLQAFVEAFFFLAQRKFKMLPLHEQVASLIDLCEYHLSLLDEKRLVCGRGVPSGGRPPHRGPPQEPSPSAQPAGDNPPPRTSCANKLSHPRHTLS
B1: the binding result in experiment [1] and in experiment [2] was “binds” in each case.
